What all share (assay): co-IP
The target of one assay is MBD3 (GFDP-tagged) (UniProt O95983).
The next assay deals with MBD2 (HA-tagged) (UniProt Q9UBB5).
A further assay concerns the target T1, FLAG-tagged C/EBPβ (UniProt Q05826).
T1 sequence: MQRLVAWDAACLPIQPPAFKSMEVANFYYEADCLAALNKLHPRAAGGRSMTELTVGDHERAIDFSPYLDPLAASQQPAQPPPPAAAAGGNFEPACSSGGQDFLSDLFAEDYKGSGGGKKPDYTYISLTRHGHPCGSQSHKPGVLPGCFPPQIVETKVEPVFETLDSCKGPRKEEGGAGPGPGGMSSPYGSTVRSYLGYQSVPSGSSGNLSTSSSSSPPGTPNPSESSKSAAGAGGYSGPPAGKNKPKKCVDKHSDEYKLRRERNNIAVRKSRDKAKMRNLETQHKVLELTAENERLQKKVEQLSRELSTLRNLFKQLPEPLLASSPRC

The chains behind the UniProt entries cited, without tags or fusion partners. Where a name states a change or a piece, a line headed by the entry shows the natural chain unless it says otherwise.
UniProt O95983: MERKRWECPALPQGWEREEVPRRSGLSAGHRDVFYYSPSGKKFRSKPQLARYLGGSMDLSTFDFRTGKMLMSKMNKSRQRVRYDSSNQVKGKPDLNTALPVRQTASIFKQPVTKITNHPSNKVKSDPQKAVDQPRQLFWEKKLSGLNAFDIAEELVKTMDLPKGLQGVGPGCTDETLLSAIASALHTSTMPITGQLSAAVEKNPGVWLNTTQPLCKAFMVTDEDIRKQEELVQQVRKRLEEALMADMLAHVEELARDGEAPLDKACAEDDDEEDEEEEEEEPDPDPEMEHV
UniProt Q9UBB5: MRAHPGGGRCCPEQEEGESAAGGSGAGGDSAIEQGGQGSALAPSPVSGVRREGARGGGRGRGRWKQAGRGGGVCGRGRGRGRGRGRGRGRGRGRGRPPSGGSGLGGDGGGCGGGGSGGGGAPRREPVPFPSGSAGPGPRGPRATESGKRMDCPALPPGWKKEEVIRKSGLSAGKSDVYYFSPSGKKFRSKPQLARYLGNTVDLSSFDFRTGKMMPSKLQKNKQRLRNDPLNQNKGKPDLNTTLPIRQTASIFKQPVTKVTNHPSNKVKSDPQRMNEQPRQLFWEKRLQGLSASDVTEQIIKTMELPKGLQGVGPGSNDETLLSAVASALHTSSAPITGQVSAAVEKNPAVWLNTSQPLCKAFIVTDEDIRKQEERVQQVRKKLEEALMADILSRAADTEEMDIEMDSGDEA
UniProt Q9BQA1: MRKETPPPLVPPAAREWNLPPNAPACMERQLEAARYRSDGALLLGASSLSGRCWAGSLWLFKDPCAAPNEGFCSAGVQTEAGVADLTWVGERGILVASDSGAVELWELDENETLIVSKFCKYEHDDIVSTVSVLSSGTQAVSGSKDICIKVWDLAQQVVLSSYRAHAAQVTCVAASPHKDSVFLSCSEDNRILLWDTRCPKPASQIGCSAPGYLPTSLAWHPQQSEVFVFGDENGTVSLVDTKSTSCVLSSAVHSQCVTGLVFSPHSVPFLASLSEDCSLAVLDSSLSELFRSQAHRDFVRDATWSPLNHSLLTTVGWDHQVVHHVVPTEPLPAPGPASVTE
UniProt Q9Y5B9: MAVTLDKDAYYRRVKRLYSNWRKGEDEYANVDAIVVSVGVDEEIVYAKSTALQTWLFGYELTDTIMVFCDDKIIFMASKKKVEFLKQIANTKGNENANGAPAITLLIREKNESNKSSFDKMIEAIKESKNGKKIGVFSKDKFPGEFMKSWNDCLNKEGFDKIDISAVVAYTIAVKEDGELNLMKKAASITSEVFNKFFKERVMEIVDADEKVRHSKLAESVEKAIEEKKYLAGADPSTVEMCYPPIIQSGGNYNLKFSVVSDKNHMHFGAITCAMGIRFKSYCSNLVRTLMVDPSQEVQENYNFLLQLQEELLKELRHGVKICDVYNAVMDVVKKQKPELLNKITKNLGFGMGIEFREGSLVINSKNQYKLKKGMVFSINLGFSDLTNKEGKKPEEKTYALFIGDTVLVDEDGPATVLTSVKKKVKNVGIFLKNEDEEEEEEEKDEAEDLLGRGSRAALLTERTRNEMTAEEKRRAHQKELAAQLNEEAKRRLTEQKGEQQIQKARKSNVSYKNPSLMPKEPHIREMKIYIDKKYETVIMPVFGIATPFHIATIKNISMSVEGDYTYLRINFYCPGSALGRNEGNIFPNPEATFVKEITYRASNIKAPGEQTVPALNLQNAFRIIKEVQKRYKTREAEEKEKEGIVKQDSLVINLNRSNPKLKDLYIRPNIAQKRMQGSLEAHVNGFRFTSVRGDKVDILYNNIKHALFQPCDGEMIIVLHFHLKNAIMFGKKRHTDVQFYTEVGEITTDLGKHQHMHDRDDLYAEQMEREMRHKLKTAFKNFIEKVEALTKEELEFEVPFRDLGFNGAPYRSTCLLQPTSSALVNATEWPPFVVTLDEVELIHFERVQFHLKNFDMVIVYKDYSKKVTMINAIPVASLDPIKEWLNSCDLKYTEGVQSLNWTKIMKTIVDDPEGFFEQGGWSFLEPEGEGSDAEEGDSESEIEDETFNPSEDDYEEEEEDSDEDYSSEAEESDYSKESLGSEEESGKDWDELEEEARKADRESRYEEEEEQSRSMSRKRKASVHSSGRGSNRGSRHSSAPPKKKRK
UniProt Q92830: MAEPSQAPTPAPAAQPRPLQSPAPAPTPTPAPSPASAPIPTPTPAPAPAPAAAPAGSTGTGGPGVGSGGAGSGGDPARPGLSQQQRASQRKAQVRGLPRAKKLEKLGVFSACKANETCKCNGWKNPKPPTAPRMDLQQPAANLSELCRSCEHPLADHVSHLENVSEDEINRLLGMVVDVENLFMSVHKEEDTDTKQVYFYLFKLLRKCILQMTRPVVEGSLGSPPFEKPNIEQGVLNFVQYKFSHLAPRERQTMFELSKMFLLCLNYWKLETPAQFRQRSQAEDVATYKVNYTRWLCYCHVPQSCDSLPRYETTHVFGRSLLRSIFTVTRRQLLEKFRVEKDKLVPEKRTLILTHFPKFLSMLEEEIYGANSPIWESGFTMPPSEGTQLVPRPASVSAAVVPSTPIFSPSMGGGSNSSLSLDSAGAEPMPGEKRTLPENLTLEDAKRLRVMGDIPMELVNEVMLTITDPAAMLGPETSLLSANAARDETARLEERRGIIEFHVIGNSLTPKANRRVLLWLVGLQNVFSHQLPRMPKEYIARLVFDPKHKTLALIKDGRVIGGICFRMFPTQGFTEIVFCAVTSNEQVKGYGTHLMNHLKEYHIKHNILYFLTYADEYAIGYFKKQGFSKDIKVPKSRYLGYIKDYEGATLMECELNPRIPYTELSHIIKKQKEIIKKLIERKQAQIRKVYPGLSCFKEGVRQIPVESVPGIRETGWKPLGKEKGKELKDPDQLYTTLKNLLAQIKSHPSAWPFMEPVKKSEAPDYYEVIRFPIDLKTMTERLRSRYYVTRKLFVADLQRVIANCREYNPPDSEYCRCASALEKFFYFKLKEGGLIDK
UniProt Q9NPF5: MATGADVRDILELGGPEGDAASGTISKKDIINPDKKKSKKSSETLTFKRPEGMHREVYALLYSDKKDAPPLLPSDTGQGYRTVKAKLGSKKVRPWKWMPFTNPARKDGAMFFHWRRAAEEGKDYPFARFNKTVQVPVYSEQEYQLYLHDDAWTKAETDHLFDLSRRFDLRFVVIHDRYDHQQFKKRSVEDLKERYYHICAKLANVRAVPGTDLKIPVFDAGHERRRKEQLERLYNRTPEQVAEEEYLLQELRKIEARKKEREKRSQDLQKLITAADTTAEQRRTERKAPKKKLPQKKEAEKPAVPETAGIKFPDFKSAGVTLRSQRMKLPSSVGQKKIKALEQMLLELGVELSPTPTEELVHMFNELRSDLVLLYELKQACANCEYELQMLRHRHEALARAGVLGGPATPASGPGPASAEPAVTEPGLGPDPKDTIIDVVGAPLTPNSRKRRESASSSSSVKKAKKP

For another assay, the target named is T2, FLAG-tagged LAP* C/EBPβ (UniProt Q05826).
T2 sequence: T1 sequence

The target in assay [1] is T3, wild-type (WT) C/EBPβ (chicken) (UniProt Q05826).
T3 sequence: T1 sequence

Results are given in words; binding and its absence hold for the method and conditions named. Binding seen in cells or lysates may run through a third protein. Some binding calls cover weakened binding; strength is not graded here. For part of these data: Tags and fused reporters may be left off the sequences shown.

Turning to “WDR77(MEP50)/PRMT5 sub-module (from UniProt Q9BQA1 1-342; O14744 1-637) (complex)”, the results for the binding result with MBD3 (GFDP-tagged) and with MBD2 (HA-tagged) were “no binding” and “binds”, respectively.

Consider “FACT complex (GFP-tagged Spt16 and SSRP1) (from UniProt Q9Y5B9 1-1047; Q08945 1-709)”, for which, in the assay with FLAG-tagged C/EBPβ, the binding entry is listed as “binds”.

In the case of “histone acetyltransferase GCN5 (from UniProt Q92830 1-837)”, the binding result with FLAG-tagged LAP* C/EBPβ was “binds”.

“DNA methyltransferase-associated protein DMAP1 (from UniProt Q9NPF5 1-467)”: the binding entry (with FLAG-tagged LAP* C/EBPβ; in assay [1]) was “binds” each time.

These data come from article doi:10.1101/238709.
